The source of these data is US12617773B2, “Azetidin-3-ylmethanol derivatives as CCR6 receptor modulators” (Idorsia Pharmaceuticals Ltd, priority 2020, dated 2026).

Protein sequences, listed by entry. Tags and fused reporters are not part of them.
UniProt P51684, whole entry: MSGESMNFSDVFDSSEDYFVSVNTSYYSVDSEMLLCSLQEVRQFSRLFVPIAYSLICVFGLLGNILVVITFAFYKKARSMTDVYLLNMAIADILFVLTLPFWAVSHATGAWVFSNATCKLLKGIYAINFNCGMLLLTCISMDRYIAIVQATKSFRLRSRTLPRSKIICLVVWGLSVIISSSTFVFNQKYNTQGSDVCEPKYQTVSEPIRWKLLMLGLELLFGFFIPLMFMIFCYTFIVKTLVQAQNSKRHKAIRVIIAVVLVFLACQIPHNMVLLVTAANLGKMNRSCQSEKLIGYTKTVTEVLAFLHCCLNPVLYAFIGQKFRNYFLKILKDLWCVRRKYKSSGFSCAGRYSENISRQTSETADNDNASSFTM

For orientation: IC50 means the midpoint of a concentration-inhibition curve.

The structures given here were assigned with low confidence; some may be wrong.

The assay deals with human CCR6 (Homo sapiens, UniProt P51684). The assay can be described thus: FLIPR assay (inhibition of CCL20-induced calcium signal). The class given is cell-based. The note with it: read-out: FLIPR IC50; HEK-293 cells expressing human CCR6; mean values where determined several times.

Take `CCOc1ccc(C(O)(c2ccc(OC(F)(F)F)cc2)C2(C)CN(C)C2)cn1` (centres unmarked): the IC50 is 149 nM. Take `Cc1cncc(C(O)(c2ccc(OC(F)(F)F)cc2)C2(C)CN(C)C2)c1` (centres unmarked): the IC50 worked out at 138 nM.
